US6010876A, “Clavanins” (The Regents of the University of California, priority 1996, dated 2000)
Not every detail of the peptide structures is certain; ends, links or a residue may be inferred. No end group written: not given here.

Key:
[1] = test system: E. faecalis CDC 21 (VR); assay: radial diffusion assay, minimal bactericidal concentration; assay type: cell-based; conditions: X-intercept of radial diffusion assay, pH 6.5
Experimental: (§1) In more detail, the filtrates (≈3.5 mg of protein by BCA) were concentrated to 2 ml by vacuum centrifugation in a Speed Vac Concentrator (Savant Instruments, Hicksville, N.Y.). Gel permeation chromatography was performed on a 1.2×65 cm BioGel P-10 gel permeation column with 5% acetic acid. Preparative continuous acid-urea PAGE electrophoresis was performed as described by Harwig, S. S. L. et al., Anal Biochem (1993) 208:382. Active fractions were pooled and purified by RP-HPLC a 4.6×250 mm Vydac C18 column, using various linear gradients of acetonitrile in 0.1% trifluoroacetic acid (TFA) or […],) heptafluorobutyric acid (HFBA). Throughout this multistep procedure, fractions were lyophilized, concentrated and tested for antimicrobial activity against Listeria monocytogenes strain EGD by a radial diffusion technique described in Lehrer, R. I. et al., J Immunol Methods (1991) 137:167. In these assays, the underlay gels contained 9 mM sodium phosphate and 1 mM sodium citrate buffer, 0.30 mg/ml of trypticase soy broth powder (BBL, Cockeysville, Md.) and […] at a final pH of 6.5.
(§2) In addition to Cecropin P1 and Magainin 1, the activity of Clavanin A(K) was also tested. Clavanin A(K) is identical to Clavanin A except that all of the histidine residues are replaced by lysine. […] The data are provided as minimal bacteriocidal concentrations expressed in μg/ml which are the X-intercepts of radial diffusion assays performed at pH 6.5 in an underlay that contained 10 mM buffer ([…]), 1% agarose and 0.3 mg trypticase soy powder/ml.

[2] = test system: E. faecium 94.132 (VR); assay: as above; assay type: cell-based; conditions: X-intercept of radial diffusion assay, pH 6.5
Experimental: as §1, §2

[3] = test system: E. faecium; assay: as above; assay type: cell-based; conditions: E. faecium (strain not given); X-intercept of radial diffusion assay, pH 6.5
Experimental: as §1, §2

[4] = test system: MRSA 28841; assay: as above; assay type: cell-based; conditions: X-intercept of radial diffusion assay, pH 6.5
Experimental: as §1, §2

[5] = test system: MRSA 30371; assay: as above; assay type: cell-based; conditions: X-intercept of radial diffusion assay, pH 6.5
Experimental: as §1, §2

[6] = test system: P. aeruginosa MR 2133; assay: as above; assay type: cell-based; conditions: X-intercept of radial diffusion assay, pH 6.5
Experimental: as §1, §2

[7] = test system: P. aeruginosa MR 3007; assay: as above; assay type: cell-based; conditions: X-intercept of radial diffusion assay, pH 6.5
Experimental: as §1, §2

[8] = test system: P. aeruginosa SBI-N; assay: as above; assay type: cell-based; conditions: X-intercept of radial diffusion assay, pH 6.5
Experimental: as §1, §2

[9] = test system: S. aureus 930918-3; assay: as above; assay type: cell-based; conditions: X-intercept of radial diffusion assay, pH 6.5
Experimental: as §1, §2

[10] = test system: S. typhimurium 14028s; assay: as above; assay type: cell-based; conditions: X-intercept of radial diffusion assay, pH 6.5
Experimental: as §1, §2

[11] = test system: L. monocytogenes EGD; assay: radial diffusion assay; assay type: cell-based, Listeria monocytogenes; conditions: for minimal bacteriocidal concentration: L. monocytogenes EGD, X-intercept of radial diffusion assay, pH 6.5
Experimental: as §1, §2
The effect of pH on antimicrobial activity against several organisms was tested in a pH range wherein histidine becomes comparably charged to lysine. FIGS. 6-8 show the results for native or synthetic Clavanin A and synthetic Clavanin A(K) using defensin NP-2 as a control, with respect to L. monocytogenes, E. coli, and C. albicans respectively. The radial diffusion assays were conducted as described in Examples 1 and 3 above.

[12] = test system: E. coli BAS 894; assay: radial diffusion assay, minimal bactericidal concentration; assay type: cell-based; conditions: X-intercept of radial diffusion assay, pH 6.5
Experimental: as §1, §2

[13] = test system: K. pneumoniae 2270; assay: as above; assay type: cell-based; conditions: X-intercept of radial diffusion assay, pH 6.5
Experimental: as §1, §2

[14] = test system: E. coli ML-35p; assay: colony counting assay; assay type: cell-based; conditions: for time after which an antimicrobial effect is seen: E. coli, 1.5 or 3.1 μg/ml, colony count, pH 6.5 (FIG. 10)
[15] = test system: Listeria monocytogenes; assay: colony counting assay; assay type: cell-based; conditions: L. monocytogenes; 3.5 or 7.0 μg/ml; colony count, pH 6.5 (FIG. 9)

Substance | minimal bacteriocidal concentration [1] [µg/mL] | minimal bacteriocidal concentration [2] [µg/mL] | minimal bacteriocidal concentration [3] [µg/mL] | minimal bacteriocidal concentration [4] [µg/mL] | minimal bacteriocidal concentration [5] [µg/mL] | minimal bacteriocidal concentration [6] [µg/mL] | minimal bacteriocidal concentration [7] [µg/mL] | minimal bacteriocidal concentration [8] [µg/mL] | minimal bacteriocidal concentration [9] [µg/mL] | minimal bacteriocidal concentration [10] [µg/mL] | minimal bacteriocidal concentration [11] [µg/mL] | antimicrobial activity, amide versus free-acid form ([11]; L. monocytogenes) | minimal bacteriocidal concentration [12] [µg/mL] | minimal bacteriocidal concentration [13] [µg/mL] | time after which an antimicrobial effect is seen [14] [min] | time after which an antimicrobial effect is seen [15] [min] | other results
GIGKFLHSAGKFGKAFVGEIMKS [Magainin 1, GI GKFLH SAGKF GKAFV GEI MKS, reference compound] | > 200 | 5.5 | 7.3 | > 200 | > 200 | 0.44 | 0.93 | 0.31 | > 200 | 2.7 | 7.0 |  |  |  |  |  | 
VFQFLGKIIHHVGNFVHGFSHVF [synthetic Clavanin A (free-acid)] |  |  |  |  |  |  |  |  |  |  |  | behaved similarly |  |  |  |  | 
VFQFLGKIIHHVGNFVHGFSHVF-NH2 [Clavanin A, VFQFLGKIIHHVGNFVHGFSHVF*] |  | 0.14 | 0.77 | 1.4 | 6.7 | 0.29 | 0.17 | 0.19 | > 200 | > 200 | 0.39 | behaved similarly | 0.17 | > 200 | ≤ 5 | ≤ 5 | antimicrobial activity at pH 5.5-6.5 ([11]; L. monocytogenes, radial diffusion, pH 5.5-6.5 (FIG. 6)): highly antimicrobial; antimicrobial activity at pH 7.5 ([11]; L. monocytogenes, radial diffusion, pH 7.5 (FIG. 6)): relatively inactive; effect of salt on antimicrobial activity ([11]; L. monocytogenes, 100 mM NaCl added to the underlay gels): diminish but not to destroy the activity; reduction of colony count ([14]; E. coli ML-35P, peptide at 1.6 μg/ml, pH 6.5): more than 2 log units
VFQFLGKIIKKVGNFVKGFSKVF-NH2 [Clavanin A(K)] | 6.5 | 0.36 | 0.67 | 2.5 | 5.6 | 0.91 | 0.42 | 0.60 | 6.8 | 1.9 | 0.41 |  | 0.46 | 1.3 | ≤ 5 | ≤ 5 | effect of assay pH on antimicrobial activity ([11]; L. monocytogenes, radial diffusion, three pHs 5.5 to 7.5 (FIG. 6)): comparably active at all three pHs
